Results: US20080105961A1, “Ligands of the Molecule Fit (Agt-121) and their Pharmaceutical Use” (priority 2004, published 2008)
These are yes or no findings as the source states them, for the method shown. Some entries that bind do so weakly or less than the wild type.

Chains of the proteins cited; added tags and fusions are not shown.
UniProt P32121: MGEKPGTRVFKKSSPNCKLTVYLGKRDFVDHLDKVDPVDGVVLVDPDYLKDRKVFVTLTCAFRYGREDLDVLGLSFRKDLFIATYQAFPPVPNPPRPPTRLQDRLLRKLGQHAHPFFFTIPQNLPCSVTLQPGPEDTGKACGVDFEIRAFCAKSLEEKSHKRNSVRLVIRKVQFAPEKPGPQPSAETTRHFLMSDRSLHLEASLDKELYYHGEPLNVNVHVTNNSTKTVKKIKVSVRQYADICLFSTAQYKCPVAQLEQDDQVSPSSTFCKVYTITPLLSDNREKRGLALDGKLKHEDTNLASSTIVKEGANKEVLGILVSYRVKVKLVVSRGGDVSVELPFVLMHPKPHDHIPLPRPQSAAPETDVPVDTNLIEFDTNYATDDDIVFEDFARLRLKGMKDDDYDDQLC
UniProt O94973: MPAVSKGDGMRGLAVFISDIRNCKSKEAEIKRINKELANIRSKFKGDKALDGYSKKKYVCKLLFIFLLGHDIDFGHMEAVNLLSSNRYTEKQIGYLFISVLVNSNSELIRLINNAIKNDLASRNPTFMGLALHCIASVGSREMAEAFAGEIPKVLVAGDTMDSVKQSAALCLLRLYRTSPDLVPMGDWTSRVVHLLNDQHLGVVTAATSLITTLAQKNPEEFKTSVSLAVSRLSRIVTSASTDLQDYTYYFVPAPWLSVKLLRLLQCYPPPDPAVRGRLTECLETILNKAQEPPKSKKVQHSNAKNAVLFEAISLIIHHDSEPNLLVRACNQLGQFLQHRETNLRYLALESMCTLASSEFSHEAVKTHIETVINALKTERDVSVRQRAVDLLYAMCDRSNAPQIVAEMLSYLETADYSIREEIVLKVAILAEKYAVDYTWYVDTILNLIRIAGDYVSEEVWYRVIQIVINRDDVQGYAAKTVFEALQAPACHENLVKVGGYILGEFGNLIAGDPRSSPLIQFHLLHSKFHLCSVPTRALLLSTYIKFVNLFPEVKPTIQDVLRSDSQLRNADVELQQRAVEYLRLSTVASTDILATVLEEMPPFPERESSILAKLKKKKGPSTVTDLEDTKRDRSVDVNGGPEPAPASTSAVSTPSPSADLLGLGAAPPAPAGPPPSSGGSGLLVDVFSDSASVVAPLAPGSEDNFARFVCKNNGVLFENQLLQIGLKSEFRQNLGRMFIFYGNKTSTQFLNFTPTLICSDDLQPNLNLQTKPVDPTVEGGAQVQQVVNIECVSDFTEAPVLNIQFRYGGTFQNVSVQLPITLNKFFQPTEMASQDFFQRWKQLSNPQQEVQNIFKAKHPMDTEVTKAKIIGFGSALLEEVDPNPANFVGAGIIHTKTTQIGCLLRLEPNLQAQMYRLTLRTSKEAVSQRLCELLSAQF
UniProt P49407: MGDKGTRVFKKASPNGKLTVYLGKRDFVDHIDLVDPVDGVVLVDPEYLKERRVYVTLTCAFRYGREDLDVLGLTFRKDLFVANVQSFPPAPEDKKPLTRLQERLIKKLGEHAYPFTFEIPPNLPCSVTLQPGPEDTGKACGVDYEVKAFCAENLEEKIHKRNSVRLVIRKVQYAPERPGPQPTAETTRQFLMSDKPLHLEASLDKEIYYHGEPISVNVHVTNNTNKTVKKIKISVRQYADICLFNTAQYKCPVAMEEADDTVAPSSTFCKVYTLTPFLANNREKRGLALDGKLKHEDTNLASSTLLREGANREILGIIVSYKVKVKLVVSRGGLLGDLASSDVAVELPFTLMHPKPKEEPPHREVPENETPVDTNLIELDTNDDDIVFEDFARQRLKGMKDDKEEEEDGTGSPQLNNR
UniProt Q99963: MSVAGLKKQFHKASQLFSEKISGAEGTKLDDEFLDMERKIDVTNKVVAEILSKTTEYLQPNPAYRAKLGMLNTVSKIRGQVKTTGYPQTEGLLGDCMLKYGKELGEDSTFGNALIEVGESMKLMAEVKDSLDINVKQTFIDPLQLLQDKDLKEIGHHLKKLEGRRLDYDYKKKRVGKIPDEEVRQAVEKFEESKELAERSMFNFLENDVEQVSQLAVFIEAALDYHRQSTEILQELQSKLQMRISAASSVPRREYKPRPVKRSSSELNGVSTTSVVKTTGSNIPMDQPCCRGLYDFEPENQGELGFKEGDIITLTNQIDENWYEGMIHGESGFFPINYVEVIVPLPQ
UniProt O95782: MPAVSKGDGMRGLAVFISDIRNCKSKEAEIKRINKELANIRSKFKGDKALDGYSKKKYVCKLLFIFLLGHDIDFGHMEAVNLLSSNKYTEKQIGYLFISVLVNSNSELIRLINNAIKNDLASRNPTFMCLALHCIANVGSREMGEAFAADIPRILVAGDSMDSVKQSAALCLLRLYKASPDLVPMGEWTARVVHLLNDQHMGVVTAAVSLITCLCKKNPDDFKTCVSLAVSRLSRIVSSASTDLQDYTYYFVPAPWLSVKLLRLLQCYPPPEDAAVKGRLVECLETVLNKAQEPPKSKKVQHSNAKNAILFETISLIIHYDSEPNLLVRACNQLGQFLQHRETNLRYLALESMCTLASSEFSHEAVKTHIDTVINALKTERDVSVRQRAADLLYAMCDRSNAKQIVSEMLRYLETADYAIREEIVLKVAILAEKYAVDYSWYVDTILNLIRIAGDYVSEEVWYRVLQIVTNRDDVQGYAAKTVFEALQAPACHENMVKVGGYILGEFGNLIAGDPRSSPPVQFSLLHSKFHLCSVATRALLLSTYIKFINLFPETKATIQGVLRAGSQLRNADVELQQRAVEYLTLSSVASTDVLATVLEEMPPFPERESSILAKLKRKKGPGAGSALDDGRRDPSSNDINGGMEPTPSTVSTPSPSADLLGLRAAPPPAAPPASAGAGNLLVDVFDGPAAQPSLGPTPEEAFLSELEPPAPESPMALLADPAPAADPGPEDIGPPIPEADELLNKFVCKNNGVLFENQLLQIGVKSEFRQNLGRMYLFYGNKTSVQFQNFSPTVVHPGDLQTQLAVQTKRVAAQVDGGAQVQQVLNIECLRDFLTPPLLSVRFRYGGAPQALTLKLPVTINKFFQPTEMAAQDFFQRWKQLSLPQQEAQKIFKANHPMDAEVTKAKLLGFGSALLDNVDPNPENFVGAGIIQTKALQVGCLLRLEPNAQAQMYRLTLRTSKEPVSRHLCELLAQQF

Key:
[1] = biological target: Beta-arrestin 2 (human) (UniProt P32121); assay: yeast two-hybrid screen of a human brain cDNA library (2 clones)
[2] = biological target: Adapter-related protein complex 2, α-2 subunit (human) (UniProt O94973); assay: yeast two-hybrid screen of a human brain cDNA library (1 clone)
[3] = biological target: Beta-arrestin 1 (human) (UniProt P49407); assay: as above
[4] = biological target: Adapter-related protein complex 2, α-2 subunit (human) (UniProt O94973); assay: yeast two-hybrid
[5] = biological target: SH3GL3; endophilin 3 (human) (UniProt Q99963); assay: yeast two-hybrid
[6] = biological target: Adapter-related protein complex 2 α-1 subunit (human) (UniProt O95782); assay: yeast two-hybrid
[7] = biological target: Beta-arrestin 2 (human) (UniProt P32121); assay: yeast two-hybrid
[8] = biological target: Beta-arrestin 1 (human) (UniProt P49407); assay: yeast two-hybrid
[9] = biological target: SH3GL3; endophilin 3 (human) (UniProt Q99963); assay: yeast two-hybrid screen of a human brain cDNA library (7 clones; rows listed from highest to lowest interacting strength)
[10] = biological target: Adapter-related protein complex 2 α-1 subunit (human) (UniProt O95782); assay: yeast two-hybrid screen of a human brain cDNA library (8 clones)
[11] = biological target: SH3GL3; endophilin 3 (human) (UniProt Q99963); assay: yeast two-hybrid screen of a human brain cDNA library (2 clones)

Measured: binding

B1: FIT-NP (FIT N-terminal plus proline-rich region), yeast two-hybrid bait (protein, not shown: small tags and cut ends)
chain: MMEGLKKRTRKAFGIRKKEKDTDSTGSPDRDGMQPSPHELPYHSKAECAREGGKKASKKSNGAPNGFYAEIDWERYNSPELDEEGYSIRPEEPGSTKGKHFYSSSESEEEEESHKKFNIKIKPLQSKDILKNAATVDELKASIGNIALSPSPVRKSPRRSPGAIKRNLSSEEVARPRRSTPTPELTSKKPLDDTLALAPLFGPPLESAFDGHKTEVLLDQPEIWGSGQPVNPSMESPKLARPFPTGTPPPLPPKTVPATPPRTGSPLTVATGNDQAATEAKIEKPPSISDLDSIFGPVLSPKSVAVNTEETWVHFSDASPEHVTPELTPREKVVTPPAASDIPADSPTPGPPGPPGSAGPPGPPGPRNVPSPLNLEEVQKKVAEQTFIKDDYLETLSSPKECGLGQRETPPPPPPPTYRTVVSSPGPGSGSGTGTASGASSPARPATPLVPCSCSTPPPPPPRPPSRPKLPPGKPGVGDVSRPFSPPIHSSSPPPIAPL
binds: [1] | [2] | [3] | [4] | [5] | [6] | [7] | [8] | [9] | [10]

B2: FIT-PR (FIT proline-rich region), yeast two-hybrid bait (protein, not shown: small tags and cut ends)
chain: RPFPTGTPPPLPPKTVPATPPRTGSPLTVATGNDQAATEAKIEKPPSISDLDSIFGPVLSPKSVAVNTEETWVHFSDASPEHVTPELTPREKVVTPPAASDIPADSPTPGPPGPPGSAGPPGPPGPRNVPSPLNLEEVQKKVAEQTFIKDDYLETLSSPKECGLGQRATPPPPPPPTYRTVVSSPGPGSGSGTGTASGASSPARPATPLVPCSCSTPPPPPPRPPSRPKLPPGKPGVGDVSRPFSPPIHSSSPPPIAPL
binds: [11] | [5]
